Experimental data from patent publication US20230220047A1, “PEPTIDES FOR TREATMENT OF SEPSIS AND CANCER” (NORWEGIAN UNIVERSITY OF SCIENCE AND TECHNOLOGY (NTNU), priority 2020, published 2023).
Residue numbers refer to the chain shown, from its start. In names and notes the source's numbering stands. No constants are given. Whether binding was seen depends on the method and setting. For part of these data: In cells and extracts the contact can be indirect. Some entries that bind do so weakly or less than the wild type. Where a sequence is shown, tags or fusion partners need not be part of it.

The chains behind the UniProt entries cited, without tags or fusion partners. Residues count along the entry.
UniProt Q86XR7, residues 2-235: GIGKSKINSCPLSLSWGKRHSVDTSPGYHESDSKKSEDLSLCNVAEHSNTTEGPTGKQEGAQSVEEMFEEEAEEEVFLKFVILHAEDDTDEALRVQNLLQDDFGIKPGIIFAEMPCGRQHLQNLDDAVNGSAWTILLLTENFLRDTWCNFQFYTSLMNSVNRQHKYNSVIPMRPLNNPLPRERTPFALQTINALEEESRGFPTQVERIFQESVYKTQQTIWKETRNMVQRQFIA
UniProt P58753: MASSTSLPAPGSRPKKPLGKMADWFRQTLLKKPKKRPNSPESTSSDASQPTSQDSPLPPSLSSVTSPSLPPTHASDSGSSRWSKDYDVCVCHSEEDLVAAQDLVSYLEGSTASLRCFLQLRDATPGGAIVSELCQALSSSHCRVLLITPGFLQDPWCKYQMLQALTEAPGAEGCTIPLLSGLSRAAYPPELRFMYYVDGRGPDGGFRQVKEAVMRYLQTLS

B1: SLAMF1^Flag (human SLAMF1 with C-terminal Flag tag, wild type) (receptor, UniProt Q13291 21-335, looked up, not shown: small tags and cut ends)
chain: ASYGTGGRMMNCPKILRQLGSKVLLPLTYERINKSMNKSIHIVVTMAKSLENSVENKIVSLDPSEAGPPRYLGDRYKFYLENLTLGIRESRKEDEGWYLMTLEKNVSVQRFCLQLRLYEQVSTPEIKVLNKTQENGTCTLILGCTVEKGDHVAYSWSEKAGTHPLNPANSSHLLSLTLGPQHADNIYICTVSNPISNNSQTFSPWPGCRTDPSETKPWAVYAGLLGGVIMILIMVVILQLRRRGKTNHYQTTVEKKSLTIYAQVQKPGPLQKKLDSFPAQDPCTTIYVAATEPVPESVQETNSITVYASVTLPES
B2: SLAMF1^Flag T321A (receptor, human, UniProt Q13291 21-335, looked up, not shown: small tags and cut ends)
chain: B1 chain with T301A
B3: SLAMF1^Flag S335A (receptor, human, UniProt Q13291 21-335, looked up, not shown: small tags and cut ends)
chain: B1 chain with S315A
B4: SLAMF1^Flag P333T (receptor, human, UniProt Q13291 21-335, looked up, not shown: small tags and cut ends)
chain: B1 chain with P313T
B5: SLAMF1 (human, no tag stated; overexpressed in HEK293T cells or endogenous in primary human macrophages) (receptor, UniProt Q13291 21-335, looked up)
chain: B1 chain
B6: SLAMF1^Flag T331V (receptor, human, UniProt Q13291 21-335, looked up, not shown: small tags and cut ends)
chain: B1 chain with T311V
B7: SLAMF1^Flag S329A/T331I (receptor, human, UniProt Q13291 21-335, looked up, not shown: small tags and cut ends)
chain: B1 chain with S309A, T311I
B8: SLAMF1^Flag P315S (receptor, human, UniProt Q13291 21-335, looked up, not shown: small tags and cut ends)
chain: B1 chain with P295S

Experiments:
[1] = target: TRAM^YFP (human TRAM fused to YFP) (human) (UniProt Q86XR7); assay: anti-Flag co-precipitation from HEK 293T lysates, anti-GFP Western blot
[2] = target: TRAM^YFP (human TRAM fused to YFP) (human) (UniProt Q86XR7); assay: anti-Flag co-precipitation from HEK 293T lysates, Western blot
[3] = target: Mal^Flag (human Mal with Flag tag, overexpressed in HEK293T cells) (human) (UniProt P58753); assay: anti-Flag IP from HEK293T cells co-expressing Mal^Flag and SLAMF1, Western blot
[4] = target: human TRAM (endogenous in primary human macrophages, or overexpressed in HEK 293T cells) (human) (UniProt Q86XR7); assay: endogenous co-precipitation with anti-SLAMF1 mAb (E-11) from primary human macrophages, Western blot

Binder	binding [2]	also measured
B1		binding [1]: binds
B2	binds	
B3	binds	
B4	binds	
B5		binding [3]: binds; binding [4]: binds
B6	binds	
B7	binds	
B8	binds	
